Results are given in words; binding and its absence hold for the method and conditions named. Binding seen in cells or lysates may run through a third protein. Some binding calls cover weakened binding; strength is not graded here.
How the values were obtained:
MUC1* (human) [1] = biological target: MUC1* (human) (UniProt P15941); test: co-immunoprecipitation from iPS7 and HES3 stem cell extracts with Ab-5; Western blot with B9, re-probed with anti-PSMGFR
MUC1* (human) [2] = biological target: MUC1* (human) (UniProt P15941); test: co-immunoprecipitation from T47D breast cancer cell extracts with Ab-5 (anti-MUC1 cytoplasmic tail); Western blot with anti-NME7, re-probed with anti-PSMGFR
MUC1* (human) [3] = biological target: MUC1* (human) (UniProt P15941); test: co-immunoprecipitation from T47D breast cancer cell extracts with Ab-5; Western blot with anti-NME7, re-probed with anti-PSMGFR; size compared with recombinant proteins

Amino acid sequences for entries named in this document (tags omitted). A change or cut given only in a name is not applied to a line headed by its entry. Residues count along the entry.
UniProt P15941, residues 1110-1255: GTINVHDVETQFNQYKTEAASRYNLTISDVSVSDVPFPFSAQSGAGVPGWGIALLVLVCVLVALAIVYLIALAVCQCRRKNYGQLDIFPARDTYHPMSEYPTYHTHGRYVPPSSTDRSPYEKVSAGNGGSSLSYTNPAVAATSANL
UniProt Q9Y5B8: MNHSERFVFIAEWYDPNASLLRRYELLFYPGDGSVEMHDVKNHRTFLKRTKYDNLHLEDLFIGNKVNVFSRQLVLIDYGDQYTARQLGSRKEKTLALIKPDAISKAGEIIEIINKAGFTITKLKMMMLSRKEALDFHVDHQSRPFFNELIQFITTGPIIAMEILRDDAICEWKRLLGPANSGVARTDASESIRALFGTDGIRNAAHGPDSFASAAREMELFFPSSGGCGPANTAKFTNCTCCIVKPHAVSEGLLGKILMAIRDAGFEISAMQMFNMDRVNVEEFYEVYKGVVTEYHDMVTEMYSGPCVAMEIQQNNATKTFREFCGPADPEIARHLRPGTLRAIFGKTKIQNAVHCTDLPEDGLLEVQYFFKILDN

Measured: binding

NME7-X1 (from UniProt Q9Y5B8 125-376) (ligand)
binds: all assays above

— patent publication US20210308213A1
